Some of the results follow.
Compound: COc1ccc(Cn2ccc3ccc(C(=O)NO)cc32)cc1
Assay: dose-dependent thermal stabilisation call (2D-TPP, DLPTP, 10% FDR) (binary (1 = stabilised)); higher = stabilised by the compound
Settings: system: HL-60 intact cells; concentration range 0.04-10 µM

The chains behind the UniProt entries cited, without tags or fusion partners. Where a name states a change or a piece, a line headed by the entry shows the natural chain unless it says otherwise.
UniProt Q5ST30: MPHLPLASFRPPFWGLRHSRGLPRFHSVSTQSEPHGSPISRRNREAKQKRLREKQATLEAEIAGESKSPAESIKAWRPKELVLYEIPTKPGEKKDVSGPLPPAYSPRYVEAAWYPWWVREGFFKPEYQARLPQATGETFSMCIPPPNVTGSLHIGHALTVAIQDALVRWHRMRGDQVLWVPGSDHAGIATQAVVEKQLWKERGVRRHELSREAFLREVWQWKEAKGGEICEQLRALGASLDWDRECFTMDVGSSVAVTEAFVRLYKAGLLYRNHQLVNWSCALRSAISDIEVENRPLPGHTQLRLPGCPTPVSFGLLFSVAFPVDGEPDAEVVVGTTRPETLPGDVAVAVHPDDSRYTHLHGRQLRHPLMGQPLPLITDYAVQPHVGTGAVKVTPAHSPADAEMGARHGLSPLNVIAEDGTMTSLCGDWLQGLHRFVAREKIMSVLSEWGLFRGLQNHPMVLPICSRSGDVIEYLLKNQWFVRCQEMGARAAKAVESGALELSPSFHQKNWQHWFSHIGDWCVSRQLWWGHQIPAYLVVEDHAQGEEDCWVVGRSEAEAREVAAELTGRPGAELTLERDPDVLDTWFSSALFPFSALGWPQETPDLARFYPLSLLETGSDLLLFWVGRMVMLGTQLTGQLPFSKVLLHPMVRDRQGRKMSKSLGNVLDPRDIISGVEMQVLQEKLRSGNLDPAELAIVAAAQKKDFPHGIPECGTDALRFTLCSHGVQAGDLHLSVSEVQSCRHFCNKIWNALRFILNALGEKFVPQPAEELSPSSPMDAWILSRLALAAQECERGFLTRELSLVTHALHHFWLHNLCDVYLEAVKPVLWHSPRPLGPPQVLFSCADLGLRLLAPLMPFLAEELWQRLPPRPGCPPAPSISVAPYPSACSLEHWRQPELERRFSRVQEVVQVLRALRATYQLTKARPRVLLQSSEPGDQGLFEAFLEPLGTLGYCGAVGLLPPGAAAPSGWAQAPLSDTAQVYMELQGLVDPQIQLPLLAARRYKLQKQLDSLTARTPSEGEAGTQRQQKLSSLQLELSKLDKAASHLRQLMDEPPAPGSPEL
UniProt Q9UK41: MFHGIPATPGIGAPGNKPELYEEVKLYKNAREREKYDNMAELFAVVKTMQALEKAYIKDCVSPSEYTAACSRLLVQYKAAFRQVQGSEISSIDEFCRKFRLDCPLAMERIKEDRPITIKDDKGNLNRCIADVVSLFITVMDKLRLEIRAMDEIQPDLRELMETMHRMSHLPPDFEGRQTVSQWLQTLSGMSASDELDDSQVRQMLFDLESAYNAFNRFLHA
UniProt Q9H1Z4: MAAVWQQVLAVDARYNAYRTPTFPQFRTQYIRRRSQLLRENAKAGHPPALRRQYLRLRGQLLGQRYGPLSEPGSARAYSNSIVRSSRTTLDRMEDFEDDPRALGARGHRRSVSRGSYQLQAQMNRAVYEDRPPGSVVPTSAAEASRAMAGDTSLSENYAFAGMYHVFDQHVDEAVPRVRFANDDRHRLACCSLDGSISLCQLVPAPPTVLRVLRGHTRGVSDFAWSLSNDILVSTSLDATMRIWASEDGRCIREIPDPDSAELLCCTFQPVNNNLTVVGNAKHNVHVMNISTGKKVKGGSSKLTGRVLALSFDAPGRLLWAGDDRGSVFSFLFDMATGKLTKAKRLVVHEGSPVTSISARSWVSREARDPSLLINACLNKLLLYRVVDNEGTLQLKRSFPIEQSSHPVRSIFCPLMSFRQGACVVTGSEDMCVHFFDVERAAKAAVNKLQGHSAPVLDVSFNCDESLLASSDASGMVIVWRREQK
UniProt Q8NEZ3: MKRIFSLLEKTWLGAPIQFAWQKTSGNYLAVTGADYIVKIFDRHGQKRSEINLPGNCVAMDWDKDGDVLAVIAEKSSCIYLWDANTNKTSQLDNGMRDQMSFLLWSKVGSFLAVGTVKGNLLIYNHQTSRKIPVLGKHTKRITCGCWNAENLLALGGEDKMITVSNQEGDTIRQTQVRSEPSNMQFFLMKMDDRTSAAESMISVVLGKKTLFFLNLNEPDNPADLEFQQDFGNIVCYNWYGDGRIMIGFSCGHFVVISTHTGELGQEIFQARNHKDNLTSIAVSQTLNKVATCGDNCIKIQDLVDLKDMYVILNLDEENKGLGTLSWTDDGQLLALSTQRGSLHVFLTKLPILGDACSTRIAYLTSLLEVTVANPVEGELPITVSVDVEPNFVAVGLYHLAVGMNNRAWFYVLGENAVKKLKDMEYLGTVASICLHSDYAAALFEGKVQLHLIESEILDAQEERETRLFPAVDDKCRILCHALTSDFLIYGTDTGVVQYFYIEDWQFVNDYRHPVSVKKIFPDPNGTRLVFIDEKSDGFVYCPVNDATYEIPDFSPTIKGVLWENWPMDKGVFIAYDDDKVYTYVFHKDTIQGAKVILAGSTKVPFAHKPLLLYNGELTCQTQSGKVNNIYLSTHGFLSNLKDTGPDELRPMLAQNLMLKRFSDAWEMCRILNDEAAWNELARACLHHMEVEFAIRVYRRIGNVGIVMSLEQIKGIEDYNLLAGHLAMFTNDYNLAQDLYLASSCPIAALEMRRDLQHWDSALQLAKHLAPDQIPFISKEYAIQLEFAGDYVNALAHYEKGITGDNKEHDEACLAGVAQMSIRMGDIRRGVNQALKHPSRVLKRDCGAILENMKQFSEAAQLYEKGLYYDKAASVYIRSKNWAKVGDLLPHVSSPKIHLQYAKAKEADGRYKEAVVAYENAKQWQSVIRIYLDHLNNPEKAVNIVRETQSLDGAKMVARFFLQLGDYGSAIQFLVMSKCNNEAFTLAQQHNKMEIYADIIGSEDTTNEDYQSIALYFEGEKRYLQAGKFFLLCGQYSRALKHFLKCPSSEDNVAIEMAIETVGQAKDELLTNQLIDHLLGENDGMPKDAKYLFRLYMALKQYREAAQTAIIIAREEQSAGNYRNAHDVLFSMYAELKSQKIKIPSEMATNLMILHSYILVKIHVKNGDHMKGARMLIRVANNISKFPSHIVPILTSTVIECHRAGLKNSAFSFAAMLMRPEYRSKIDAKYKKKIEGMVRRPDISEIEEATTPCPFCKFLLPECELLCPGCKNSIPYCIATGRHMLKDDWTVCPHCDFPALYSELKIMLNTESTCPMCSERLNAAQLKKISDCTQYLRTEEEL
UniProt Q9BV40: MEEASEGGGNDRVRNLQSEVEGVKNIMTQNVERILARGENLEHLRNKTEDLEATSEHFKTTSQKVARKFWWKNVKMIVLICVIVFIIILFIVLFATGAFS
UniProt Q9BRG1: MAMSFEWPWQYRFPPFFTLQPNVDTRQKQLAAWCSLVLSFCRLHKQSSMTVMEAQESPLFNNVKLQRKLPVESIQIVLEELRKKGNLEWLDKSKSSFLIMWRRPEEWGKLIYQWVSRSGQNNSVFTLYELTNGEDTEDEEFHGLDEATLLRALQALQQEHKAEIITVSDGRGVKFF
UniProt Q8ND82: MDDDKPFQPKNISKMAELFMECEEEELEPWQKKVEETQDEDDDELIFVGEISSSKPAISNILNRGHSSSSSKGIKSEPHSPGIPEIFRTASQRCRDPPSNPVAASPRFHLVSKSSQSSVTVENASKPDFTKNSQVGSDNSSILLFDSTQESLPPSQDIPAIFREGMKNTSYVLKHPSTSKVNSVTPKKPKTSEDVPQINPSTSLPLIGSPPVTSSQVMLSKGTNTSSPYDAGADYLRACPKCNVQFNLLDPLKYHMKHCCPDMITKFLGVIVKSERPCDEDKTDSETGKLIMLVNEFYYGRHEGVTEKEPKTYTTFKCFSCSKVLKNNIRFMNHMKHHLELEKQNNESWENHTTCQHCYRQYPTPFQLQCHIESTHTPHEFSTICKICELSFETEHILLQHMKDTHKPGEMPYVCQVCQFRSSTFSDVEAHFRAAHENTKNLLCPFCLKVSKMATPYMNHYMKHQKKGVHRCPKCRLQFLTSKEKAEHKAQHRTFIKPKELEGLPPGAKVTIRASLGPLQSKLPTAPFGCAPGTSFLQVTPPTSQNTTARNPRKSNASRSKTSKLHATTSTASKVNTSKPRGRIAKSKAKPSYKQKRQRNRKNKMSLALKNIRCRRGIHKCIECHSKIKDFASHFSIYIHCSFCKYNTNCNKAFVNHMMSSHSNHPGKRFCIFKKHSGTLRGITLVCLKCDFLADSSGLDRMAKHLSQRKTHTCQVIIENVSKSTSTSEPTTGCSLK
UniProt Q9GZM5: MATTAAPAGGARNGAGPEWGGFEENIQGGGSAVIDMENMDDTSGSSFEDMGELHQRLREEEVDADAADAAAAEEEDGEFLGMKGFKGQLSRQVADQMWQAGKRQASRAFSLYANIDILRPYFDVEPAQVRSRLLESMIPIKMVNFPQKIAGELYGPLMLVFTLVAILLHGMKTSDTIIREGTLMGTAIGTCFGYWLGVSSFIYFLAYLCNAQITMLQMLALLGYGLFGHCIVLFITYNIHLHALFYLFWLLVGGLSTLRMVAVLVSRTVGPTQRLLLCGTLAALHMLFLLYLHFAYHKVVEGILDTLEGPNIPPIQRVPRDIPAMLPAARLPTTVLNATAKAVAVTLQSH
UniProt P37275: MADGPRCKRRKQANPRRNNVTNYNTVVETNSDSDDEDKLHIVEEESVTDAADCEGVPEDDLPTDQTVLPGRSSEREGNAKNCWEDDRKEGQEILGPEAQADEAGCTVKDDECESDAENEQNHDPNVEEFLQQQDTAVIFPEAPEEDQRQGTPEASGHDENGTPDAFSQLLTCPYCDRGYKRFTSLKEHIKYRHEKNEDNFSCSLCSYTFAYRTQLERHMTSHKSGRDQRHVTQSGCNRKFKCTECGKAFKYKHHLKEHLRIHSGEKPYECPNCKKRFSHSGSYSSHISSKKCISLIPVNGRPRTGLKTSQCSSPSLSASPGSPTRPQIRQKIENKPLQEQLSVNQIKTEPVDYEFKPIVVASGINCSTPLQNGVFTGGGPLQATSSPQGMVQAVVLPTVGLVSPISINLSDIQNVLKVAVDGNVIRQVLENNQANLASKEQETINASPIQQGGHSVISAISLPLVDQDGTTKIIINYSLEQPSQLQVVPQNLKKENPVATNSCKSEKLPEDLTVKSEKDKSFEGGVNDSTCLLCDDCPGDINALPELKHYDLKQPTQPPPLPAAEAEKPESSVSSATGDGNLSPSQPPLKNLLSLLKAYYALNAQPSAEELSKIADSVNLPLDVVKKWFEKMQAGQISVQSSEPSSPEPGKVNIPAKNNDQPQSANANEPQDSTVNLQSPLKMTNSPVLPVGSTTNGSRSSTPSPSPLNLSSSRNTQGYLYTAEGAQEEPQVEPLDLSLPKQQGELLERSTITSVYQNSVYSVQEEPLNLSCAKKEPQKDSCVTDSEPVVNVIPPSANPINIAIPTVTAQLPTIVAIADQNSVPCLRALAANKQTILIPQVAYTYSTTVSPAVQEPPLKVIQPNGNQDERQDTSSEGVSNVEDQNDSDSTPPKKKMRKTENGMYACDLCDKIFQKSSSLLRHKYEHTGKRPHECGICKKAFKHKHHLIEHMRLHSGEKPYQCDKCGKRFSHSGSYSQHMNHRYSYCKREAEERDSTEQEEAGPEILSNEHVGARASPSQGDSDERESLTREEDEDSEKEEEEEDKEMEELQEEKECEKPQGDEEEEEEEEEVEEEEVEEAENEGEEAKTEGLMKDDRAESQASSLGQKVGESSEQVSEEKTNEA
UniProt Q6N043: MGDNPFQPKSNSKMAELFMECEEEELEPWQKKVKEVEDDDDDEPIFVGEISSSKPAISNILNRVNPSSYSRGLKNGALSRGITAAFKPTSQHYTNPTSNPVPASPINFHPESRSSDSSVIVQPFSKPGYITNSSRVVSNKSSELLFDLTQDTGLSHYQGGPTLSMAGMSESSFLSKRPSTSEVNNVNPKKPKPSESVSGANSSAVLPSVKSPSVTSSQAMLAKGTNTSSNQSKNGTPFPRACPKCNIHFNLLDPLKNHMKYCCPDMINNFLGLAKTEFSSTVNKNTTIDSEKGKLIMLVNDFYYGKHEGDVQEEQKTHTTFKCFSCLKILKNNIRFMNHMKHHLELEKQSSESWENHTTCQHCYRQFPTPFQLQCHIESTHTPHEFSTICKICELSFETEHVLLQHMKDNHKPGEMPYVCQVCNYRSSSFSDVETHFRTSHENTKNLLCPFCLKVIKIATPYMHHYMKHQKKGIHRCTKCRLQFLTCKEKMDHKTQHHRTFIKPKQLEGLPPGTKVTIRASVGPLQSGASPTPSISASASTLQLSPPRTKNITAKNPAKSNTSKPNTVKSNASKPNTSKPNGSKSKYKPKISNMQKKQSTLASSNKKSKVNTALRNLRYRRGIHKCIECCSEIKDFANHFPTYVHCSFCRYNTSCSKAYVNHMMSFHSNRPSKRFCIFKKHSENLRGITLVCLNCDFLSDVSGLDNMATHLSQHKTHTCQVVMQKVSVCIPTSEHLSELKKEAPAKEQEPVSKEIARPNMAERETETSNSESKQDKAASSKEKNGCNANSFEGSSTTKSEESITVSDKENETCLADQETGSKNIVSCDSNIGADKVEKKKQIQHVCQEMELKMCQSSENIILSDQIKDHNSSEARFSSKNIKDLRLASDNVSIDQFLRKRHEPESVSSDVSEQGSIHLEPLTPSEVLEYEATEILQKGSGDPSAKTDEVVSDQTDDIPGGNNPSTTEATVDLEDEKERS

Row | Target | dose-dependent thermal stabilisation call
1 | ZFR (UniProt Q96KR1) | inactive: 0
2 | VCL (UniProt P18206) | inactive: 0
3 | WTAP (UniProt Q15007) | inactive: 0
4 | VDAC2 (UniProt P45880) | inactive: 0
5 | ZFP36L2 (UniProt P47974) | inactive: 0
6 | ZNF22 (UniProt P17026) | inactive: 0
7 | YJ005_HUMAN (UniProt Q6ZSR9) | inactive: 0
8 | ZNF259 (UniProt O75312) | inactive: 0
9 | UTP20 (UniProt O75691) | inactive: 0
10 | XRN1 (UniProt Q8IZH2) | inactive: 0
11 | WNK1 (UniProt Q9H4A3) | inactive: 0
12 | VARS2 (UniProt Q5ST30) | inactive: 0
13 | VPS28 (UniProt Q9UK41) | inactive: 0
14 | WDR47 (UniProt O94967) | inactive: 0
15 | WDR13 (UniProt Q9H1Z4) | inactive: 0
16 | WDR19 (UniProt Q8NEZ3) | inactive: 0
17 | VAMP8 (UniProt Q9BV40) | inactive: 0
18 | ZFPL1 (UniProt O95159) | inactive: 0
19 | YIF1B (UniProt Q5BJH7) | inactive: 0

Already shown: an excerpt of the list.
Row | Target | dose-dependent thermal stabilisation call
10 | XRN1 (UniProt Q8IZH2) | inactive: 0
11 | WNK1 (UniProt Q9H4A3) | inactive: 0

Following part.

Row | Target | dose-dependent thermal stabilisation call
20 | VPS25 (UniProt Q9BRG1) | inactive: 0
21 | ZC3HAV1 (UniProt Q7Z2W4) | inactive: 0
22 | VBP1 (UniProt P61758) | inactive: 0
23 | ZNF280C (UniProt Q8ND82) | inactive: 0
24 | WDHD1 (UniProt O75717) | inactive: 0
25 | YIPF3 (UniProt Q9GZM5) | inactive: 0
26 | WDR73 (UniProt Q6P4I2) | inactive: 0
27 | YWHAQ (UniProt P27348) | inactive: 0
28 | UVRAG (UniProt Q9P2Y5) | inactive: 0
29 | ZEB1 (UniProt P37275) | inactive: 0
30 | UTP6 (UniProt Q9NYH9) | inactive: 0
31 | ZBTB44 (UniProt Q8NCP5) | inactive: 0
32 | VPS26A (UniProt O75436) | inactive: 0
33 | YTHDC1 (UniProt Q96MU7) | inactive: 0
34 | ZFYVE27 (UniProt Q5T4F4) | inactive: 0
35 | ZNF280D (UniProt Q6N043) | inactive: 0
36 | VPS39 (UniProt Q96JC1) | inactive: 0
37 | ZC3H7B (UniProt Q9UGR2) | inactive: 0
